{"sequences": {"note": "Sequences of proteins named here, by UniProt entry; tags and fusion partners are left off. Residues count along the entry.", "UniProt P04757, 26-499": "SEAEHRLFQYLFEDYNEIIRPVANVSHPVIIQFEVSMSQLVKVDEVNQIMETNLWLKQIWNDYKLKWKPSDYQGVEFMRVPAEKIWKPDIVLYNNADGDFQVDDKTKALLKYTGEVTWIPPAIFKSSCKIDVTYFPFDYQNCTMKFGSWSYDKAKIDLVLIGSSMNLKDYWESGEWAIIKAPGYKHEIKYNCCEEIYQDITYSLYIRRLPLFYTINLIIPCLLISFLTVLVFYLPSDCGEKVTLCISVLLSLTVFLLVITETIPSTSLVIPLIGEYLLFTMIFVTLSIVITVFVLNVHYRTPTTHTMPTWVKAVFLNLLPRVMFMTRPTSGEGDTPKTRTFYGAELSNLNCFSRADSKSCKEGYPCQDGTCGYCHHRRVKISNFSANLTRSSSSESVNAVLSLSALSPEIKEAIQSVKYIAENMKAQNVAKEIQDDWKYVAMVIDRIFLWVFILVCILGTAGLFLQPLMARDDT", "UniProt P12392, 21-495": "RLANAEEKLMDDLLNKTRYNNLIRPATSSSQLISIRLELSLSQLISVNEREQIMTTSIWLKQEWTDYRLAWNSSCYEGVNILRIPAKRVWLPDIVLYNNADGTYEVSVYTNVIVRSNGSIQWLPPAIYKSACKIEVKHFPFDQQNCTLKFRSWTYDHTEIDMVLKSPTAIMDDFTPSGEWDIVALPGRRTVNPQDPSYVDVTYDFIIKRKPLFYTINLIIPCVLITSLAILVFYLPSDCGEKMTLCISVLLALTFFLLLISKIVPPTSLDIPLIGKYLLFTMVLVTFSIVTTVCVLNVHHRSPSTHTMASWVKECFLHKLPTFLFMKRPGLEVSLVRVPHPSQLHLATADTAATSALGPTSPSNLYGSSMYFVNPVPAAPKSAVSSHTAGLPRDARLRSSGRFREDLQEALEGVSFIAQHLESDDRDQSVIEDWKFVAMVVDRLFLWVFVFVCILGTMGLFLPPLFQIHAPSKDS", "UniProt P02708, 21-457": "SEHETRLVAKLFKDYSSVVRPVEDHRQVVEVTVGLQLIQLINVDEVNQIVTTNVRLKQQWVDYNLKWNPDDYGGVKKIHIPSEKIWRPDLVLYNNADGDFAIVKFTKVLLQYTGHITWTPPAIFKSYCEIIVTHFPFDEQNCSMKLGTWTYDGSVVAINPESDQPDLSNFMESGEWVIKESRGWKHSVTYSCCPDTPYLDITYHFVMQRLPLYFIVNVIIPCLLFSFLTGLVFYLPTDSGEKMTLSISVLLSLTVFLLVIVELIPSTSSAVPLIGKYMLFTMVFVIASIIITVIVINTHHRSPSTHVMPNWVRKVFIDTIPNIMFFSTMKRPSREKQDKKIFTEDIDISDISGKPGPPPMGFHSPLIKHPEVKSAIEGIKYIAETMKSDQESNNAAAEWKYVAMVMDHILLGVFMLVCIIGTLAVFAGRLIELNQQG", "UniProt P07510, 23-517": "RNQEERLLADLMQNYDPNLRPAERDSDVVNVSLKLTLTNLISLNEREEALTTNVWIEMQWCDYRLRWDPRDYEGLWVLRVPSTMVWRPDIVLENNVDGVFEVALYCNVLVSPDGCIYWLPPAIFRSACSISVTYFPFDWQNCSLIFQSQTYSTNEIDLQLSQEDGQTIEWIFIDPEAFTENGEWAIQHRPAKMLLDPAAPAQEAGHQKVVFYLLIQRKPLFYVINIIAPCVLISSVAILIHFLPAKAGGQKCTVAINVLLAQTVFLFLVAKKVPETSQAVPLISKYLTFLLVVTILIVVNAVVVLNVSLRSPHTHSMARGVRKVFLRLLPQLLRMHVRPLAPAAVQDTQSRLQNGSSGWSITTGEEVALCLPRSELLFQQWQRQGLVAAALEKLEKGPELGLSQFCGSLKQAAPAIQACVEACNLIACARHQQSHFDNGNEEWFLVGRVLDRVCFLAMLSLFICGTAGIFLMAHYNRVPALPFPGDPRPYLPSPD", "UniProt Q07001, 22-517": "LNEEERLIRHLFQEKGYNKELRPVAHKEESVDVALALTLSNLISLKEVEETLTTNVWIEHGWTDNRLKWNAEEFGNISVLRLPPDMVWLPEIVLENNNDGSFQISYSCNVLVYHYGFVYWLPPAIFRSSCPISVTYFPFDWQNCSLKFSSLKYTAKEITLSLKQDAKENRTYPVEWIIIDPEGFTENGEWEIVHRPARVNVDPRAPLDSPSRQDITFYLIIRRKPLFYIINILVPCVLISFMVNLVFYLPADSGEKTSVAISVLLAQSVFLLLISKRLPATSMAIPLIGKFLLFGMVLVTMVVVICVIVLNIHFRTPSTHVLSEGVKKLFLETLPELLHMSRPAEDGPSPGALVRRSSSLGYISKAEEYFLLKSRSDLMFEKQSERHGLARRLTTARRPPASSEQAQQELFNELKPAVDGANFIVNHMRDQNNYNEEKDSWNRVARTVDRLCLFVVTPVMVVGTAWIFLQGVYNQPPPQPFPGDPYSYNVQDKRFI"}, "source": "patent EP0801527B1", "about": "(priority 1995, dated 1996)", "key": {"[1]": {"target": "T1, ganglionic-type neuronal nicotinic receptors (Rattus norvegicus, UniProt P04757+P12392)", "T1 construct": "Intact cells on dishes were used for functional studies; endogenous in cells; host or cells: PC12 rat pheochromocytoma cells", "type": "cell-based", "conditions": "pc12 cells"}, "[2]": {"target": "T2, muscle-like nicotinic receptors (Homo sapiens, UniProt P02708+P07510+Q07001)", "T2 construct": "Intact cells on dishes were used for functional studies; endogenous in cells; host or cells: TE671/RD human embryonal rhabdomyosarcoma cells", "type": "cell-based", "conditions": "te671/rd cells"}}, "note": "At least one compound was matched to its structure with a doubt left."}
{"smiles": "CNCCCCc1cccnc1", "note": "[Sample No. 7, N-methyl-(3-pyridinyl)-butane-1-amine]", "values": [{"measurement": "Ganglion Effect", "setting": "[1]", "value": 31, "unit": "% nicotine"}, {"measurement": "Muscle Effect", "setting": "[2]", "value": 0, "unit": "% nicotine"}]}
